The target of the experiment is T1, ELK-1 (UniProt P19419).
T1 sequence: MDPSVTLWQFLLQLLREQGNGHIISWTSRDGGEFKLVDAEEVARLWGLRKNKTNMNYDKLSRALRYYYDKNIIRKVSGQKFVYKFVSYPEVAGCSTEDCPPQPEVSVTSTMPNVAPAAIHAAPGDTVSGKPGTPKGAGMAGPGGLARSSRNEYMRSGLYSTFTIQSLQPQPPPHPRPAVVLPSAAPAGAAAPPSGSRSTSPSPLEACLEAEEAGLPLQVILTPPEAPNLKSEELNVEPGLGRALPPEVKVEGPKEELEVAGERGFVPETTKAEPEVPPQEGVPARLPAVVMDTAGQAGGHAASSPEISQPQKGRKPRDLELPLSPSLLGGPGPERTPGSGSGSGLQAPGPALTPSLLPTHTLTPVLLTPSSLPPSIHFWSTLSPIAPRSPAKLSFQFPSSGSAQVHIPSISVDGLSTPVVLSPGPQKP
The experiment can be described thus: co-IP; HEK293T cells co-transfected with ELK-1 (or deletion mutants) and FBXO25 (or S244L); lysed in co-IP buffer (25 mM Tris HCl pH 7.5, 150 mM KCl, 10 mM NaF, 1 mM Na3VO4, 1% NP-40); ELK-1 precipitated with polyclonal αElkC antibody overnight at 4 °C (preimmune control), protein G Sepharose; FBXO25 detected by αV5 immunoblot. For orientation: Immunoblotting shows a protein as a band on a membrane.

Substitutions are numbered along the chain they refer to. Numbers in names are those of the source. No constants are given. Whether binding was seen depends on the method and setting. In cells and extracts the contact can be indirect. Some entries that bind do so weakly or less than the wild type. Tags and fused reporters may be left off the sequences shown.

B1: FBXO25 (V5/His-tagged) (protein, UniProt Q8TCJ0 1-367)
chain: MPFLGQDWRSPGWSWIKTEDGWKRCESCSQKLERENNRCNISHSIILNSEDGEIFNNEEHEYASKKRKKDHFRNDTNTQSFYREKWIYVHKESTKERHGYCTLGEAFNRLDFSSAIQDIRRFNYVVKLLQLIAKSQLTSLSGVAQKNYFNILDKIVQKVLDDHHNPRLIKDLLQDLSSTLCILIRGVGKSVLVGNINIWICRLETILAWQQQLQDLQMTKQVNNGLTLSDLPLHMLNNILYRFSDGWDIITLGQVTPTLYMLSEDRQLWKKLCQYHFAEKQFCRHLILSEKGHIEWKLMYFALQKHYPAKEQYGDTLHFCRHCSILFWKDYHLALLFKDSGHPCTAADPDSCFTPVSPQHFIDLFKF
B1: the binding result was “binds”.

B2: FBXO25-S244L (protein, UniProt Q8TCJ0 1-367)
chain: B1 chain with S244L
On to B2, for which the binding entry is reported as “binds”.

Values taken from PMC7948486.
